Measurements published in paper doi:10.1101/2024.03.18.584613.
Like-named read-outs stand apart in the source and are kept apart here. Results are given in words; binding and its absence hold for the method and conditions named. In cells and extracts the contact can be indirect. A yes stands for co-enrichment or nearness to the bait. Other partners may have been found.

By UniProt entry, the sequences of proteins in these tests, tags left out. Where a name states a change or a piece, a line headed by the entry shows the natural chain unless it says otherwise. Residues count along the entry.
UniProt Q3KP44: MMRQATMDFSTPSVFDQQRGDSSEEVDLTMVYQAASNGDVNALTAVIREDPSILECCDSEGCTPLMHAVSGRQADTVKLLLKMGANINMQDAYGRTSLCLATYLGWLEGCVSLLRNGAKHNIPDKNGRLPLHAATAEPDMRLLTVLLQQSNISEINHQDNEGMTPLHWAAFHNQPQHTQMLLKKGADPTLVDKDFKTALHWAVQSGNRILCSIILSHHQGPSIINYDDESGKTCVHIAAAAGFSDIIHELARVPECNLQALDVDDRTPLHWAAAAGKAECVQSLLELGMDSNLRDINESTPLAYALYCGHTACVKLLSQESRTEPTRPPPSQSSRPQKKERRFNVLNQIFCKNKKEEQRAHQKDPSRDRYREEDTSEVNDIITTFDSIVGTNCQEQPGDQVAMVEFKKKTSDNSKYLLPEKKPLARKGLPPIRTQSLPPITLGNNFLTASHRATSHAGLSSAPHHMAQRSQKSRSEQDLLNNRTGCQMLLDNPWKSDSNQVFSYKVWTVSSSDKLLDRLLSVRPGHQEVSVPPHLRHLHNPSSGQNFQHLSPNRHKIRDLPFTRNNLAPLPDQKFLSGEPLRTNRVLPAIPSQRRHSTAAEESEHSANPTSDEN
UniProt P13010: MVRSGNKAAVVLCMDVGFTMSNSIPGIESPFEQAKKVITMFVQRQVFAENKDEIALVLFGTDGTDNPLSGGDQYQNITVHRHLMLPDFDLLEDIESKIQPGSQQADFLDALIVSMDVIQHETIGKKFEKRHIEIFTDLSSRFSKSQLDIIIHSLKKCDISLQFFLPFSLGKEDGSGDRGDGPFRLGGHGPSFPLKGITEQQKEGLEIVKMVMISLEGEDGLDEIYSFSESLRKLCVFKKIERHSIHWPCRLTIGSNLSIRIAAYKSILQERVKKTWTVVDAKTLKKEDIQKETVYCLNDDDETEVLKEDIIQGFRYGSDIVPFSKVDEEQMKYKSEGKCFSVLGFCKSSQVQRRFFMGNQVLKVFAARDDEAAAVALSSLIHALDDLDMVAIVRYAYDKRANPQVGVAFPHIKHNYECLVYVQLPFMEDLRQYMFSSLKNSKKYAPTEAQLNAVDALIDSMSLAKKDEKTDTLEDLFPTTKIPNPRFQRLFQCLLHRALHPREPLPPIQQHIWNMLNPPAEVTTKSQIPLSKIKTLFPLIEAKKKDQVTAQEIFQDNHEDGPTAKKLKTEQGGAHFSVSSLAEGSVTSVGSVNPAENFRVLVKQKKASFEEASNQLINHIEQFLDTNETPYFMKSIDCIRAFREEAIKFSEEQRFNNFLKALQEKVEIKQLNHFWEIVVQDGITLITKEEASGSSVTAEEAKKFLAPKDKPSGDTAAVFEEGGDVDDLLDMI
UniProt P63104: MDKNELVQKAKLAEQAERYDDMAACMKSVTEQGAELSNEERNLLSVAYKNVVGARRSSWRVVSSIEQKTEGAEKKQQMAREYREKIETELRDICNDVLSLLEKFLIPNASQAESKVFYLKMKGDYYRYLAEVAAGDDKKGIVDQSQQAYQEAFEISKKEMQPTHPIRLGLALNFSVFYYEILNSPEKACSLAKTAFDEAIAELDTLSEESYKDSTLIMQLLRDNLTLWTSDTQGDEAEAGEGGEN
UniProt Q86VP6: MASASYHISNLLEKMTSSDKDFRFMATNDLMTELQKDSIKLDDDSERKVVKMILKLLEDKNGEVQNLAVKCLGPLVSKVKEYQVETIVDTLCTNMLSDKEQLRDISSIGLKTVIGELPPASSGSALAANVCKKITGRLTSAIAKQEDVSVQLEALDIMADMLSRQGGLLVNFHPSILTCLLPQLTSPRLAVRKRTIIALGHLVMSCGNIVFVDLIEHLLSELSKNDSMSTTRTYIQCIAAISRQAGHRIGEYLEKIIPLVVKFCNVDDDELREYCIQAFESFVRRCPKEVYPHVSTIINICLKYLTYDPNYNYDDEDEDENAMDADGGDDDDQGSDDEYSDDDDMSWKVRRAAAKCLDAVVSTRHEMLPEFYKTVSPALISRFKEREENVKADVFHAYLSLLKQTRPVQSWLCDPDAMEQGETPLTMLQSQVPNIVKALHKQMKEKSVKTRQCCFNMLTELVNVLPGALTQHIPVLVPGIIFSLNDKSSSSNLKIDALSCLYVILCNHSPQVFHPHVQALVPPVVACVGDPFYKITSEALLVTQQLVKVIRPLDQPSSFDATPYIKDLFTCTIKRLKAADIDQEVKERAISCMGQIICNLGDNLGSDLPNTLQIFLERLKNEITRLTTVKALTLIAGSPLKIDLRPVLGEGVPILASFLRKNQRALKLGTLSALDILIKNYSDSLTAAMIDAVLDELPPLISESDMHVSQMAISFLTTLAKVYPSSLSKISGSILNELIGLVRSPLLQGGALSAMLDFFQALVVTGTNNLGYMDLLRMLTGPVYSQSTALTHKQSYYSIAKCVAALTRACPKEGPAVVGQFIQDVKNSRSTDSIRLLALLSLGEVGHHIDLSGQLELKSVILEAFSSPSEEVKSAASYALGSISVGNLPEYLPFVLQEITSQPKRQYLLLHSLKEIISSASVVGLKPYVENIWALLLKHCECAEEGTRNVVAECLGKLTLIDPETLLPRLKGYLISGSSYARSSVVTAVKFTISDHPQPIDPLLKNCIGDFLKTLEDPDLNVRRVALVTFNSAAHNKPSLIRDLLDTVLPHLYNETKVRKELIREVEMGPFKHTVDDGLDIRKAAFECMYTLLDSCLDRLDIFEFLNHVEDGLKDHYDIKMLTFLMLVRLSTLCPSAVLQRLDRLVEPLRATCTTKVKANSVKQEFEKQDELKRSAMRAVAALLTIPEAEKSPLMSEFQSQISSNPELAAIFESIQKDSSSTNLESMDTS
UniProt P31040, residues 43-664: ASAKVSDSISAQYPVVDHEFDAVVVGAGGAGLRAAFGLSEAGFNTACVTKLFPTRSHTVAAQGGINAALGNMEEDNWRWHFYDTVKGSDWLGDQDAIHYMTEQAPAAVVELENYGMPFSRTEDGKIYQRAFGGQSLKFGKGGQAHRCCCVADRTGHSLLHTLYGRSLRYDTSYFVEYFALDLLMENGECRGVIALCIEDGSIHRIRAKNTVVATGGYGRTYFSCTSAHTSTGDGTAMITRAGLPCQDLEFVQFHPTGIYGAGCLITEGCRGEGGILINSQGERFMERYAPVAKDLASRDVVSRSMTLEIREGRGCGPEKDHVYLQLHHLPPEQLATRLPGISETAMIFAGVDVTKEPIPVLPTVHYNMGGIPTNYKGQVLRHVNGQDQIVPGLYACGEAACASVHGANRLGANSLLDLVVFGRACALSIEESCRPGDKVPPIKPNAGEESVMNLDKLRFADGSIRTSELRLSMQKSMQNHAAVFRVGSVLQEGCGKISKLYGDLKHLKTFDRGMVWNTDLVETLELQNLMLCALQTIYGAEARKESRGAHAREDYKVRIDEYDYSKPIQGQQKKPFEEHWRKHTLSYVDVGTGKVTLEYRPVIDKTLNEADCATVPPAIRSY
UniProt P09874: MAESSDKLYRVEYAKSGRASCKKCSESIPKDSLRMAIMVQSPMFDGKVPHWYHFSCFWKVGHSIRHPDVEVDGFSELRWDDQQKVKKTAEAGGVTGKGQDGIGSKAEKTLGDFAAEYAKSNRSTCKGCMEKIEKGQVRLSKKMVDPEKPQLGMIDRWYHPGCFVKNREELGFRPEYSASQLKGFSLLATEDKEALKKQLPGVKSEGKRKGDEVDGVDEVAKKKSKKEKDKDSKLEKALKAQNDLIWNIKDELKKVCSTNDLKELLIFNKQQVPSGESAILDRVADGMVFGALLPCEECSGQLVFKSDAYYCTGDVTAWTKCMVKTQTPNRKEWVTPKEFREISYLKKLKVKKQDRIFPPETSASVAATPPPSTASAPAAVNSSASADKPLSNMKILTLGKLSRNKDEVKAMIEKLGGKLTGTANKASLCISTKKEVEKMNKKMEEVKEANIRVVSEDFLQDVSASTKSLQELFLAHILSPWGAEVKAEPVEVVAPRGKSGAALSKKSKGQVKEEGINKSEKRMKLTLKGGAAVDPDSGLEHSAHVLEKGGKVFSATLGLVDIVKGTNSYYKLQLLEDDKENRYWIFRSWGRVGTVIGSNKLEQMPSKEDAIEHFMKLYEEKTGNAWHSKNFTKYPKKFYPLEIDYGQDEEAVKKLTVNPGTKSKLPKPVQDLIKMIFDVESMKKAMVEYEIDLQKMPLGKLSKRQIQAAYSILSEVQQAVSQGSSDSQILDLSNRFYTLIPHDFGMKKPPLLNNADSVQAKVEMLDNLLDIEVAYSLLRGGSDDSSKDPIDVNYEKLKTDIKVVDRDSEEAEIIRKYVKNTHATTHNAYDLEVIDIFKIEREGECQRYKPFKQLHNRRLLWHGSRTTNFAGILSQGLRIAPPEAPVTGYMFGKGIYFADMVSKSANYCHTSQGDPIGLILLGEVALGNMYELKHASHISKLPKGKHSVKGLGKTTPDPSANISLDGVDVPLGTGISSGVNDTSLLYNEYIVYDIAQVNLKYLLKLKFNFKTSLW
UniProt Q9P0J0: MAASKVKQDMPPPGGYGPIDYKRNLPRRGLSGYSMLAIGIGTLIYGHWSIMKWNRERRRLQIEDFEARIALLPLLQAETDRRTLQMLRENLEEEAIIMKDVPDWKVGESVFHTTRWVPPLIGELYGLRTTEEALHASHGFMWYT
UniProt O75947: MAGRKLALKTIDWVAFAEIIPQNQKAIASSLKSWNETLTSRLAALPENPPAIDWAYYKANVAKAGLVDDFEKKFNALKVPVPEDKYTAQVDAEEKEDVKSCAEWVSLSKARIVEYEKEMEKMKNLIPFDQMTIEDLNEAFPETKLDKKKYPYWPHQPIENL
UniProt O95816: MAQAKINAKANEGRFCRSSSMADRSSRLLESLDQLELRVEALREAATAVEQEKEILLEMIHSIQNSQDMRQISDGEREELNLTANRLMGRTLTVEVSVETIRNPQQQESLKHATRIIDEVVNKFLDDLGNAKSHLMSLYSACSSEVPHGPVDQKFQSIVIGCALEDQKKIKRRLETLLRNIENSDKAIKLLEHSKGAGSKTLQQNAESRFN
UniProt P62258: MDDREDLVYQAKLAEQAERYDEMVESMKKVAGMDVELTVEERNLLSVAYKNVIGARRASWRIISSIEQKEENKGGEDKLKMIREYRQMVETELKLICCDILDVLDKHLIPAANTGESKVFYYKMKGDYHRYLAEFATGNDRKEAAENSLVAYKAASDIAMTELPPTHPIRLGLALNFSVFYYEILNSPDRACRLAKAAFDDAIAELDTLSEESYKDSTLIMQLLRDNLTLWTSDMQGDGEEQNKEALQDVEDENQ
UniProt O95168: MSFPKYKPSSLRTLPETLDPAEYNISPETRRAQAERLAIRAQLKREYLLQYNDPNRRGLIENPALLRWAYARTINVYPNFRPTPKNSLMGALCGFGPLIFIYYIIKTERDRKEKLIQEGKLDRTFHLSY
UniProt P31946: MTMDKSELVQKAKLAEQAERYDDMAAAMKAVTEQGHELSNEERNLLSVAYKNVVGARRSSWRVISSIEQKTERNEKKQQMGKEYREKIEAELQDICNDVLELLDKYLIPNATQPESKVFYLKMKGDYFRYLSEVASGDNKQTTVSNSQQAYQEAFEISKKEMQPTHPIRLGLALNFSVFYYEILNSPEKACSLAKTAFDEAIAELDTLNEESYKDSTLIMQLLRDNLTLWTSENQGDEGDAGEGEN
UniProt P21796: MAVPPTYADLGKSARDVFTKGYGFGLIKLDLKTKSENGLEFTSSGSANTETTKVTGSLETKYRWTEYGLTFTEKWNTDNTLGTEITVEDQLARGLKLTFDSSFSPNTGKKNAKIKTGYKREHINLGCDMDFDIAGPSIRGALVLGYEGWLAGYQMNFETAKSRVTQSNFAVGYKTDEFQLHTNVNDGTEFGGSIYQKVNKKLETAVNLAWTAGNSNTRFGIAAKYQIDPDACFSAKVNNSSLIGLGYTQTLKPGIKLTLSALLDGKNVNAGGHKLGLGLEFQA
UniProt P12956: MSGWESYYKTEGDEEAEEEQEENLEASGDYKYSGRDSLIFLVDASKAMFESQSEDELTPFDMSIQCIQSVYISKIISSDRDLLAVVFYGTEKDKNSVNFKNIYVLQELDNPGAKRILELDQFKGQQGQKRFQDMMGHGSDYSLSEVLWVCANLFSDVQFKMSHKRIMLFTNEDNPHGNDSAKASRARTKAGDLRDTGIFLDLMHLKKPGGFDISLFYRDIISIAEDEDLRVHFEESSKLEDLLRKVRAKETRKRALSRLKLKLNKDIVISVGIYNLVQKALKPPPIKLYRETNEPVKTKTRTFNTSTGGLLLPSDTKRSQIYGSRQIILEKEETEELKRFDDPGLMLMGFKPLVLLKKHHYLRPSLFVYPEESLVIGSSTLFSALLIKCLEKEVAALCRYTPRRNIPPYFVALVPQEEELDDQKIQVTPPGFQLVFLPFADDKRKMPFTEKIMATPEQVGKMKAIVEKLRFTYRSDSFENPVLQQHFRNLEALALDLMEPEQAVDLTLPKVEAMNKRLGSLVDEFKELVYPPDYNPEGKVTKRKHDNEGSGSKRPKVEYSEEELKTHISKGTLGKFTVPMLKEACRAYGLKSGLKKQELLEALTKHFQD
UniProt O75964: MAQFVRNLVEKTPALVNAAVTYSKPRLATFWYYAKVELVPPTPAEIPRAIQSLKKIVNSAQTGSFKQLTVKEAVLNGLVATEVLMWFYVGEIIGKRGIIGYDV

What was measured:
Assay in all cases: affinity purification with mass spectrometry
[1] = target: ANKRD55-MYC-FLAG (full-length ANKRD55 isoform 201 with C-terminal MYC-FLAG tags) (human) (UniProt Q3KP44)
[2] = target: ANKRD55-MYC-FLAG (full-length ANKRD55 isoform 201 with C-terminal MYC-FLAG tags) (human) (UniProt Q3KP44); remark: listed apart in the source
[3] = target: ANKRD55-MYC-FLAG (full-length ANKRD55 isoform 201 with C-terminal MYC-FLAG tags) (human) (UniProt Q3KP44); remark: listed apart in the source
[4] = target: ANKRD55-MYC-FLAG (full-length ANKRD55 isoform 201 with C-terminal MYC-FLAG tags) (human) (UniProt Q3KP44); remark: listed apart in the source
[5] = target: ANKRD55-MYC-FLAG (full-length ANKRD55 isoform 201 with C-terminal MYC-FLAG tags) (human) (UniProt Q3KP44); remark: listed apart in the source
[6] = target: ANKRD55-MYC-FLAG (full-length ANKRD55 isoform 201 with C-terminal MYC-FLAG tags) (human) (UniProt Q3KP44); remark: listed apart in the source
[7] = target: ANKRD55-MYC-FLAG (full-length ANKRD55 isoform 201 with C-terminal MYC-FLAG tags) (human) (UniProt Q3KP44); remark: listed apart in the source
[8] = target: ANKRD55-MYC-FLAG (full-length ANKRD55 isoform 201 with C-terminal MYC-FLAG tags) (human) (UniProt Q3KP44); remark: listed apart in the source

With XRCC5 (from UniProt P13010 1-732) the binding [1] was “binds”.

For 14-3-3ζ/δ (from UniProt P63104 1-245), the binding [1] was “binds” and the binding [2] was “binds”.

In the case of “cullin-associated and neddylation-dissociated protein 1 (from UniProt Q86VP6 1-1230)”, the binding [1] is reported as “binds” and the binding [3] is reported as “binds”.

SDHA (from UniProt P31040 43-664) was tested, and the binding [1] was “binds”.

For NDUFA4 (from UniProt O00483 1-81), the binding [1] was “binds”.

With DSP (from UniProt P15924 1-2871) the binding [1] was “binds”.

In the case of PARP1 (from UniProt P09874 1-1014), the binding [1] is reported as “binds”.

NDUFA13 (from UniProt Q9P0J0 1-144) was tested, and the binding [1] was “binds”.

With “ATP5PD, a subunit of mitochondrial ATP synthase (from UniProt O75947 1-161)” the binding [3] was “binds” and the binding [4] was “binds”.

With “BAG Cochaperone 2 (from UniProt O95816 1-211)” the binding [1] was “binds”, the binding [2] was “binds” and the binding [4] was “binds”.

In the case of 14-3-3ε (from UniProt P62258 1-255), the binding [1] is reported as “binds”, the binding [2] is reported as “binds” and the binding [4] is reported as “binds”.

With NDUFB4 (from UniProt O95168 1-129) the binding [1] was “binds”.

For 14-3-3β/α (from UniProt P31946 1-246), the binding [5] was “binds”, the binding [1] was “binds” and the binding [6] was “binds”. For the same molecule, the binding [7] was “binds”.

In the case of PRKDC (from UniProt P78527 1-4128), the binding [1] is reported as “binds”.

For VDAC1 (from UniProt P21796 1-283), the binding [1] was “binds”.

In the case of XRCC6 (from UniProt P12956 1-609), the binding [1] is reported as “binds”.

With ATP5MG (from UniProt O75964 1-103) the binding [1] was “binds”.

B1: 14-3-3η (protein, UniProt Q04917 1-246)
chain: MGDREQLLQRARLAEQAERYDDMASAMKAVTELNEPLSNEDRNLLSVAYKNVVGARRSSWRVISSIEQKTMADGNEKKLEKVKAYREKIEKELETVCNDVLSLLDKFLIKNCNDFQYESKVFYLKMKGDYYRYLAEVASGEKKNSVVEASEAAYKEAFEISKEQMQPTHPIRLGLALNFSVFYYEIQNAPEQACLLAKQAFDDAIAELDTLNEDSYKDSTLIMQLLRDNLTLWTSDQQDEEAGEGN
For B1, the binding [5] was “binds”, the binding [6] was “binds” and the binding [7] was “binds”. The binding [8] was “binds”.

B2: 14-3-3θ (protein, UniProt P27348 1-245)
chain: MEKTELIQKAKLAEQAERYDDMATCMKAVTEQGAELSNEERNLLSVAYKNVVGGRRSAWRVISSIEQKTDTSDKKLQLIKDYREKVESELRSICTTVLELLDKYLIANATNPESKVFYLKMKGDYFRYLAEVACGDDRKQTIDNSQGAYQEAFDISKKEMQPTHPIRLGLALNFSVFYYEILNNPELACTLAKTAFDEAIAELDTLNEDSYKDSTLIMQLLRDNLTLWTSDSAGEECDAAEGAEN
In the case of B2, the binding [5] is reported as “binds”, the binding [6] is reported as “binds” and the binding [7] is reported as “binds”. For the same molecule, the binding [8] was “binds”.

B3: 14-3-3γ (protein, UniProt P61981 1-247)
chain: MVDREQLVQKARLAEQAERYDDMAAAMKNVTELNEPLSNEERNLLSVAYKNVVGARRSSWRVISSIEQKTSADGNEKKIEMVRAYREKIEKELEAVCQDVLSLLDNYLIKNCSETQYESKVFYLKMKGDYYRYLAEVATGEKRATVVESSEKAYSEAHEISKEHMQPTHPIRLGLALNYSVFYYEIQNAPEQACHLAKTAFDDAIAELDTLNEDSYKDSTLIMQLLRDNLTLWTSDQQDDDGGEGNN
For B3, the binding [2] was “binds”, the binding [4] was “binds” and the binding [8] was “binds”.

B4: SLC25A22, a glutamate carrier (protein, UniProt Q9H936 1-323)
chain: MADKQISLPAKLINGGIAGLIGVTCVFPIDLAKTRLQNQQNGQRVYTSMSDCLIKTVRSEGYFGMYRGAAVNLTLVTPEKAIKLAANDFFRHQLSKDGQKLTLLKEMLAGCGAGTCQVIVTTPMEMLKIQLQDAGRIAAQRKILAAQGQLSAQGGAQPSVEAPAAPRPTATQLTRDLLRSRGIAGLYKGLGATLLRDVPFSVVYFPLFANLNQLGRPASEEKSPFYVSFLAGCVAGSAAAVAVNPCDVVKTRLQSLQRGVNEDTYSGILDCARKILRHEGPSAFLKGAYCRALVIAPLFGIAQVVYFLGIAESLLGLLQDPQA
In the case of B4, the binding [4] is reported as “binds” and the binding [8] is reported as “binds”.

B5: ATP5PB (protein, UniProt P24539 43-256)
chain: PVPPLPEYGGKVRYGLIPEEFFQFLYPKTGVTGPYVLGTGLILYALSKEIYVISAETFTALSVLGVMVYGIKKYGPFVADFADKLNEQKLAQLEEAKQASIQHIQNAIDTEKSQQALVQKRHYLFDVQRNNIAMALEVTYRERLYRVYKEVKNRLDYHISVQNMMRRKEQEHMINWVEKHVVQSISTQQEKETIAKCIADLKLLAKKAQAQPVM
For B5, the binding [8] was “binds”.

B6: CAT (protein, UniProt P04040 1-527)
chain: MADSRDPASDQMQHWKEQRAAQKADVLTTGAGNPVGDKLNVITVGPRGPLLVQDVVFTDEMAHFDRERIPERVVHAKGAGAFGYFEVTHDITKYSKAKVFEHIGKKTPIAVRFSTVAGESGSADTVRDPRGFAVKFYTEDGNWDLVGNNTPIFFIRDPILFPSFIHSQKRNPQTHLKDPDMVWDFWSLRPESLHQVSFLFSDRGIPDGHRHMNGYGSHTFKLVNANGEAVYCKFHYKTDQGIKNLSVEDAARLSQEDPDYGIRDLFNAIATGKYPSWTFYIQVMTFNQAETFPFNPFDLTKVWPHKDYPLIPVGKLVLNRNPVNYFAEVEQIAFDPSNMPPGIEASPDKMLQGRLFAYPDTHRHRLGPNYLHIPVNCPYRARVANYQRDGPMCMQDNQGGAPNYYPNSFGAPEQQPSALEHSIQYSGEVRRFNTANDDNVTQVRAFYVNVLNEEQRKRLCENIAGHLKDAQIFIQKKAVKNFTEVHPDYGSHIQALLDKYNAEKPKNAIHTFVQSGSHLAAREKANL
For B6, the binding [8] was “binds”.
